Assay results reported in article PMC9223585, “Structural and Functional Insights into CP2c Transcription Factor Complexes” (International Journal of Molecular Sciences, 2022).
No constants are given. Whether binding was seen depends on the method and setting. Binding seen in cells or lysates may run through a third protein. Some results given as binding are weak or reduced against the parent protein; the word gives no strength. For part of these data: Where a sequence is shown, tags or fusion partners need not be part of it.

T1: CP2c (Tfcp2), endogenous mouse (mouse (endogenous in MEL)) (UniProt Q9ERA0)
T1 sequence: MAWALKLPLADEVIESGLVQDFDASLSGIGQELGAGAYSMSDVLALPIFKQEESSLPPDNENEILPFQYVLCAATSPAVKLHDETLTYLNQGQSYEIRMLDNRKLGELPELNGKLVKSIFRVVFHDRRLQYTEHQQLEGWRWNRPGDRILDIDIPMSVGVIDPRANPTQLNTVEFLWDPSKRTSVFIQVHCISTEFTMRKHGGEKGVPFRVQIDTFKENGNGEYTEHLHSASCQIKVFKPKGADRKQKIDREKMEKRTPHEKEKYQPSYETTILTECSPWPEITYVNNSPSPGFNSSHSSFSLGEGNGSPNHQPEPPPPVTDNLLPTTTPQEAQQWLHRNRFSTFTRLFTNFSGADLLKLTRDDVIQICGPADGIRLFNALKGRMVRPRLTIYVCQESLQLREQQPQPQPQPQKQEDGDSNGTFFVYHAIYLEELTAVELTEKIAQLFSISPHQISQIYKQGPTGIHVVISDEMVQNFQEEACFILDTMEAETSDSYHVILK

T2: Flag-CP2c (UniProt Q9ERA0)
T2 sequence: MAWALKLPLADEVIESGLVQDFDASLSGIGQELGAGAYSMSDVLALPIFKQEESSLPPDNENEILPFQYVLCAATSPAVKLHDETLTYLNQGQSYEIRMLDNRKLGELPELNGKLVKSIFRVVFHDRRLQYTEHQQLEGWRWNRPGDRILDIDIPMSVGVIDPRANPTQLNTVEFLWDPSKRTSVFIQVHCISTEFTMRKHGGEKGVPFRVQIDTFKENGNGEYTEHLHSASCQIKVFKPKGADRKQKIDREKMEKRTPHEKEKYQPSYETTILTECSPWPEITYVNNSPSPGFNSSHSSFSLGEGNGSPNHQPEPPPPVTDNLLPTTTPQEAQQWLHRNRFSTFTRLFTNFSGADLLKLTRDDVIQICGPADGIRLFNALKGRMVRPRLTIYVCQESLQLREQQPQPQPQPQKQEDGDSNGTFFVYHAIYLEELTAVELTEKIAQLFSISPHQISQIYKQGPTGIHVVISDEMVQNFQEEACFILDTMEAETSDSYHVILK


Key:
[1] = target: T1, CP2c (Tfcp2), endogenous mouse (mouse (endogenous in MEL)); assay: cross-linking + co-IP; DSP XL-WB: cytosolic extracts of uninduced (d0) MEL cells only, Benzonase, 2 mM DSP 30 min at room temperature, IP, sequential Western blot
[2] = target: T1, CP2c (Tfcp2), endogenous mouse (mouse (endogenous in MEL)); assay: cross-linking + co-IP; DSP XL-WB: cytosolic extracts of MEL cells, uninduced (d0) and HMBA-induced (d3), Benzonase, 2 mM DSP 30 min at room temperature, IP, sequential Western blot with and without DTT
Flag-CP2c = target: T2, Flag-CP2c; assay: cross-linking + co-IP; DSP XL-WB: cytosolic extracts of 293T cells overexpressing Flag-CP2c, EGFP-CP2b and Flag-PIAS1, with or without CP2a; 2 mM DSP, IP, sequential Western blot

Row | binding [2] | binding (Flag-CP2c) | Binder | binding [1]
1 | binds |  | CP2a, endogenous mouse (protein, UniProt Q811S7-2 1-504) MAWVLSMDEVIESGLVHDFDSSLSGIGQELGAGAYSMSDVLALPIFKQEDSSLSLEDEAKHPPFQYVMCAATSPAVKLHDETLTYLNQGQSYEIRMLDNRKMGDMPELSGKLVKSIIRVVFHDRRLQYTEHQQLEGWKWNRPGDRLLDLDIPMSVGIIDTRTNPSQLNAVEFLWDPAKRTSAFIQVHCISTEFTPRKHGGEKGVPFRIQVDTFKQNENGEYTDHLHSASCQIKVFKPKGADRKQKNDREKMEKRTAHEKEKYQPSYDTTILTECSPWPDTPTAYVNNSPSPAPTFTSSQPSTCSVPDSNSSSPNHQGDGAAQASGEQIQPSATTQETQQWLLKNRFSSYTRLFSNFSGADLLKLTKEDLVQICGAADGIRLYNSLKSRSVRPRLTIYVCQEQPSSTALQGQPQAAGSGGESGGGTPSVYHAIYLEEMVASEVARKLASVFNIPFHQINQVYRQGPTGIHILVSDQMVQNFQDETCFLFSTVKAENNDGIHIILK | no binding (condition: uninduced (d0) MEL cells)
2 |  | binds | CP2a, ectopically overexpressed (protein, UniProt Q811S7-2 1-504) MAWVLSMDEVIESGLVHDFDSSLSGIGQELGAGAYSMSDVLALPIFKQEDSSLSLEDEAKHPPFQYVMCAATSPAVKLHDETLTYLNQGQSYEIRMLDNRKMGDMPELSGKLVKSIIRVVFHDRRLQYTEHQQLEGWKWNRPGDRLLDLDIPMSVGIIDTRTNPSQLNAVEFLWDPAKRTSAFIQVHCISTEFTPRKHGGEKGVPFRIQVDTFKQNENGEYTDHLHSASCQIKVFKPKGADRKQKNDREKMEKRTAHEKEKYQPSYDTTILTECSPWPDTPTAYVNNSPSPAPTFTSSQPSTCSVPDSNSSSPNHQGDGAAQASGEQIQPSATTQETQQWLLKNRFSSYTRLFSNFSGADLLKLTKEDLVQICGAADGIRLYNSLKSRSVRPRLTIYVCQEQPSSTALQGQPQAAGSGGESGGGTPSVYHAIYLEEMVASEVARKLASVFNIPFHQINQVYRQGPTGIHILVSDQMVQNFQDETCFLFSTVKAENNDGIHIILK | 
